# Measurements reported in PubChem BioAssay AID1259254 (NCATS, 2017).
# Aim: 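Genome-wide screen for genes that prevent DNA re-replication in cancer cells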 (primary screen)
# System: human HCT116 colorectal cancer cells
# Knock-down reagent: single siRNA against human genes
# Time to read-out: 3 days
# Detection: 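Imaged Hoechst DNA stain sorts each cell into a cycle phase by DNA amount; per plate, G2 fraction set to 0% for non-targeting and 100% for GMNN siRNA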
# Reading the numbers: G2 robust z-score: higher = more G2 cells, more excess DNA replication
# Hit rule: 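An siRNA counts as active if its G2 robust z-score lies at least 5 MADs above the screen median; here such calls match roughly 38% of GMNN control or more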
# In all, the deposit lists about 59,000 reagents; this is an unselected part. About 1,550 of them (2.6%) count as active. 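G2 share is only a proxy for re-replication; each gene was hit by three separate siRNAs, and active genes were retested.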 Entries without a mark were called inactive. Reagents against one gene are numbered here. Further read-outs or replicates are left out here. The record does not give: the amount of reagent.
Target gene,reagent,G2 robust z-score
DEUP1 (GeneID 159989),1,-0.668
DEUP1 (GeneID 159989),2,-0.486
DEUP1 (GeneID 159989),3,1.05
DGKI (GeneID 9162),1,-0.364
DGKI (GeneID 9162),2,-0.721
DGKI (GeneID 9162),3,-0.213
SIRPD (GeneID 128646),1,0.672
SIRPD (GeneID 128646),2,-0.924
SIRPD (GeneID 128646),3,0.288
SGTA (GeneID 6449),1,-0.618
SGTA (GeneID 6449),2,-0.114
SGTA (GeneID 6449),3,0.0579
KRABD5P1 (GeneID 342426),1,0.345
KRABD5P1 (GeneID 342426),2,-0.0729
KRABD5P1 (GeneID 342426),3,0.269
ZMAT3 (GeneID 64393),1,-0.211
ZMAT3 (GeneID 64393),2,-0.521
ZMAT3 (GeneID 64393),3,0.232
TNFRSF1A (GeneID 7132),1,4.12
TNFRSF1A (GeneID 7132),2,-0.229
TNFRSF1A (GeneID 7132),3,0.628
COBLL1 (GeneID 22837),1,-0.221
COBLL1 (GeneID 22837),2,0.516
COBLL1 (GeneID 22837),3,-0.012
DECR2 (GeneID 26063),1,1.44
DECR2 (GeneID 26063),2,4.27
DECR2 (GeneID 26063),3,-1.21
CTCF (GeneID 10664),1,-0.657
CTCF (GeneID 10664),2,3.6
CTCF (GeneID 10664),3,0.628
CLIP1 (GeneID 6249),1,-0.661
CLIP1 (GeneID 6249),2,1.09
CLIP1 (GeneID 6249),3,2.62
SLC35F3 (GeneID 148641),1,0.402
SLC35F3 (GeneID 148641),2,-0.55
SLC35F3 (GeneID 148641),3,-0.924
RPS19 (GeneID 6223),1,4.86
RPS19 (GeneID 6223),2,2.09
RPS19 (GeneID 6223),3,5.51 (active)
CACNG7 (GeneID 59284),1,-0.832
CACNG7 (GeneID 59284),2,2.75
CACNG7 (GeneID 59284),3,-0.511
C5orf46 (GeneID 389336),1,-1.33
C5orf46 (GeneID 389336),2,-0.201
C5orf46 (GeneID 389336),3,1.62
SGMS1 (GeneID 259230),1,-0.0756
SGMS1 (GeneID 259230),2,0.264
SGMS1 (GeneID 259230),3,-0.225
NFU1 (GeneID 27247),1,-0.956
NFU1 (GeneID 27247),2,0.47
NFU1 (GeneID 27247),3,-0.561
STMND1 (GeneID 401236),1,0.0361
STMND1 (GeneID 401236),2,-1.13
STMND1 (GeneID 401236),3,-0.178
LSS (GeneID 4047),1,2.53
LSS (GeneID 4047),2,-0.549
LSS (GeneID 4047),3,-0.3
BSPRY (GeneID 54836),1,2.85
BSPRY (GeneID 54836),2,2.47
BSPRY (GeneID 54836),3,3.4
RAP1GAP2 (GeneID 23108),1,-1.34
RAP1GAP2 (GeneID 23108),2,-0.259
RAP1GAP2 (GeneID 23108),3,0.32
PTPRCAP (GeneID 5790),1,-1.39
PTPRCAP (GeneID 5790),2,-0.664
PTPRCAP (GeneID 5790),3,-0.464
MTHFR (GeneID 4524),1,-0.445
MTHFR (GeneID 4524),2,0.249
MTHFR (GeneID 4524),3,-0.896
